According to patent US20040253234A1 (Kyowa Kirin, published 2004):
Positions count from the first letter of the chain named. These are yes or no findings as the source states them, for the method shown. Some entries that bind do so weakly or less than the wild type. Blank lines part the entries; values can stand above or below the binder they belong to.

How the values were obtained:
[1] = target: T1, C-terminus-biotin labeled compound 1 (an N-terminus peptide of FGF-8; SEQ ID NO:15) (human); experiment: BIAcore 2000, C-terminus-biotin labeled FGF-8 peptide on SA chip, antibody as analyte, RU compared
T1 sequence (peptide, C-terminus-biotin labeled): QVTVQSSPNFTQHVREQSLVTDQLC

[2] = target: T1, C-terminus-biotin labeled compound 1 (an N-terminus peptide of FGF-8; SEQ ID NO:15) (human); experiment: BIAcore 2000, C-terminus-biotin labeled FGF-8 peptide on SA chip (item 7 of Example 3)
[3] = target: T2, FGF-8 (manufactured by R&D) (UniProt P55075); experiment: BIAcore 2000, FGF-8 amine-coupled to CM5, antibody as analyte, height of binding (RU) compared
T2 sequence (looked up): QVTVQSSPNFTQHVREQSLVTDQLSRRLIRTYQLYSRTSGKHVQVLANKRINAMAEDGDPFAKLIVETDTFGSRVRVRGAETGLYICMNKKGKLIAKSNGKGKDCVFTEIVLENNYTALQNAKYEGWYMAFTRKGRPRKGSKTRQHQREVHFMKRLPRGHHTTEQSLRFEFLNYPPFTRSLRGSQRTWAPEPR

[4] = target: T2, FGF-8 (manufactured by R&D); experiment: BIAcore 2000, FGF-8 amine-coupled to CM5

B1: anti-FGF-8 CDR-grafted antibody HV0LV4-1/CHO (antibody, V domains shown)
VH: QVQLVQSGAEVKKPGASVKVSCKASGYTFTDYYLNWVRQAPGQGLEWMGEIDPGSDSIYYNENLEGRVTITADTSTSTAYMELSSLRSEDTAVYYCARYGYSRYDVRFVYWGQGTLVTVSS
VL: DVVMTQSPLSLPVTPGEPASISCRSSQSLVHSNGRTYLEWYLQKPGQSPKVLIYKVSNRISGVPDRFSGSGSGTDFTLKISRVEAEDVGVYFCFQGSHVPYTFGQGTKVEIK
binding [1]: binds
binding [2]: binds

B3: anti-FGF-8 CDR-grafted antibody HV0LV6 (antibody, V domains shown)
VH: B1 VH
VL: B1 VL with T14S, P15L
notes: YB2/0-derived, vector pKANTEX1334HV0LV6 (from pKANTEX93, human constant regions); also called KM8037
binding [4]: binds
binding [3]: binds

B4: anti-FGF-8 CDR-grafted antibody HV0LV2-1/CHO (antibody, V domains shown)
VH: B1 VH
VL: B1 VL with V2I, K50Q
binding [1]: binds
binding [2]: binds

B6: anti-FGF-8 CDR-grafted antibody HV0LV3-3/CHO (antibody, V domains shown)
VH: B1 VH
VL: B1 VL with V2I, T14S, P15L, K50Q, F92Y
binding [1]: binds

Results, then the binder that gave them:

binding [3]: binds
B2: anti-FGF-8 chimeric antibody KM3334 (antibody, V domains shown)
VH: QVQLQQSGAEVARPGASVKLSCKASGYTFTDYYLNWVKQRSGQGLEWIGEIDPGSDSIYYNENLEGRATLTADKSSSTAYMQLNSLTSEDSAVYFCARYGYSRYDVRFVYWGQGTLVTVST
VL: B1 VL with V3L, S7T, T14S, P15L, E17D, P18Q, V88L, Q105G, V109L
notes: Same expression vector pKANTEX1334 as KM3034 (human gamma1 / kappa constant regions), expressed in YB2/0 cells; also called KiM3334; YB2/0-derived anti-FGF-8 chimeric antibody

binding [3]: binds
B5: anti-FGF-8 CDR-grafted antibody HV6LV6 (antibody, V domains shown)
VH: B1 VH with K12A, K13R, A40R, P41S, M48I, Y95F
VL: B1 VL with T14S, P15L
notes: YB2/0-derived, vector pKANTEX1334HV6LV6 (from pKANTEX93, human constant regions)

binding [3]: binds
B7: anti-FGF-8 CDR-grafted antibody HV0LV0 (antibody, V domains shown)
VH: B1 VH
VL: B1 VL with V2I, K50Q, V51L, F92Y
notes: YB2/0-derived, vector pKANTEX1334HV0LV0 (from pKANTEX93, human constant regions)
